Reference: patent publication US10238713B2 (LODZ UNIVERSITY OF TECHNOLOGY, priority 2010, dated 2019)
Non-standard residues stand in square brackets, D forms with d. *: point of attachment. β3hF = N[C@H](CC(=O)O)Cc1ccccc1; tBu = CC(C)(C)*

Experiment: general procedure: Fmoc solid-phase peptide synthesis; Wang resin; 2-Cl-trityl resin; HBTU or TBTU / DIPEA; cyclisation with PyBOP/HOAt/2,4,6-collidine
[1] = whole synthesis, 214 nm, scale of the general procedure 0.2 mmol

## cyclo(PP[β3hF]F)
Cyclisation step, HPLC (Vydac C18, 214 nm)
  final HPLC purity: 99%
Cyclisation step, on linear precursor
  cyclisation yield: 27%

## cyclo(PP[β3hF]W) (SMILES O=C1C[C@H](Cc2ccccc2)NC(=O)[C@@H]2CCCN2C(=O)[C@@H]2CCCN2C(=O)[C@H](Cc2c[nH]c3ccccc23)N1)
[1]
  final HPLC purity: 99.47%

## cyclo(PP[β3hF]Y(tBu)) (SMILES CC(C)(C)Oc1ccc(C[C@@H]2NC(=O)C[C@H](Cc3ccccc3)NC(=O)[C@@H]3CCCN3C(=O)[C@@H]3CCCN3C2=O)cc1)
[1]
  final HPLC purity: 98.43%

## cyclo([dP][dP][β3hF]F) (SMILES O=C1C[C@H](Cc2ccccc2)NC(=O)[C@H]2CCCN2C(=O)[C@H]2CCCN2C(=O)[C@H](Cc2ccccc2)N1)
[1]
  final HPLC purity: 97.44%
